At least one peptide structure holds a part that was inferred or is arguable (an end, a ring closure or a residue). Peptide text beside a SMILES is read from it. * marks the point of attachment. Acm = CC(=O)NC*
Tests used:
[1] = test system: experimentally hypertensive rabbit eye; assay: Antagonizing effect on stress induced intraocular pressure in the rabbit eye, treatment simultaneous with stress; type: in vivo; conditions: Example 9; for Change in pressure / Pressure after 5 1/5: 11 stress units, peptides as drops of 0.5% solution 3× daily; for Initial Pressure: baseline
Procedure: The main feature of this clinical model is a stress induced elevation of the intraocular pressure in the rabbit eye above the initial and normal value. The stress is exerted, i.e. applied, in the form of measuring the pressure (at 12 hour intervals) with the help of a SHIOTZ-Tonometer, which is loaded with 7.5 grams.
Adult rabbits of random breed and sex in groups of n=3-10 were employed. Weight 2,5-3,0 kg. The peptide was a freeze-dried powder, and was applied to the rabbit eye as a powder, or as drops, dissolved in 0.9% NaCl aqueous solution. Positive control was the commercial glaucoma drugs, either timololor pilocarpin, and negative control was 0.9% NaCl solution in water.
20 mg peptide was dissolved in 0.6 ml 0.9% NaCl aqueous solution and applied in aliquots of 60 μl four times daily over a period of 2.5 days.
The treatment was started at the beginning of the experiment simultaneously with stress units. Five stress units were applied at 12 hour intervals.
Stress units were applied at 12 hour intervals over a period of 51/2 days, i.e. 11 stress units. The peptides were applied 3× daily over this period as drops of a 0.5% solution in 0.9% NaCl in aqueous solutions.
Stress units were applied at 12 hour intervals over a period of 51/2 days, i.e. 11 stress units. The peptides were applied 3× daily over this period as drops of a 1.0% solution in 0.9% NaCl in aqueous solution.

[2] = test system: water load induced hypertension in the rabbit eye; assay: Water load model, intraocular pressure in rabbits' eyes; type: in vivo; conditions: single dose; for AUC: area under Δ IOP-time curve
Procedure: The findings of intraocular pressure lowering effects in the stress induced rabbit model has been confirmed and further studied by using another elevated eye pressure rabbit model. In this model, the widely applied water load model, elevation of the intraocular pressure is achieved by injecting a large volume of sterile water intraperitoneally into the rabbits. Following onset of eye drop treatment in one eye while the other eye is treated with saline placebo, the intraocular pressure of both eyes is then measured at various intervals and the pressure difference between the eyes is taken as an expression of the pharmaceutical effect. In these experiments, pilocarpine, a well-known pressure lowering cholinergic agent, was used as positive control.
The studies utilized a "water load" animal model.
Thirty minutes before drug solution installation, rabbits were injected intraperitonally with 60 ml/kg of sterile distilled water for injection (30° C.) spiked with an antibiotic mixture (Sigma P9032).
At time zero, 50 μl of a drug solution was instilled to one eye and an equal volume of a saline solution was instilled to the other eye. The intraocular pressure in each eye was monitored at the time points indicated. The change in intraocular pressure (IOP) at each time point is computed by subtracting the IOP in the dosed eye from that in the undosed eye.
From these plots was assessed the maximal IOP effect, the time to reach this and the time for returning to a zero or insignificant level of intraocular pressure lowering effect. These figures may be taken as a measure of potency and duration of effect. As a measure of the full pharmaceutical effect at various dose levels was taken a sum figure of the area under the curves (AUC).
A 0.5% solution of the peptides or 2.6% pilocarpine nitrate (positive control) in 0.9% NaCl aqueous solution was applied in one eye and 0.9% Nacl, also acting as negative control in the other eye, an IOP was measured in both eyes for 3 hours.
A 0.25%, 0.5% of 1.0% solution of the peptides in 0.9% aqueous NaCl solution was applied in one eye and 0.9% NaCl to the other eye and IOP was measured in both eyes for 3 hours.

SMILES	Change in pressure [1]	Pressure after 5 1/5 [1] [mm Hg]	Initial Pressure [1] [mm Hg]	Duration of effect ([2]; Example 11, 0.5% solution) [min]	Time to max. response ([2]; Example 11, 0.5% solution) [min]	Max. response Δ IOP ([2]; Example 11, 0.5% solution, IOP followed 3 hours) [mm Hg]	Duration of effect ([2]; Example 12, Conc. 0.25%) [min]	Max resp. Δ IOP ([2]; Example 12, Conc. 0.25%) [mm Hg]	Time to max. resp. ([2]; Example 12, Conc. 0.25%) [min]	AUC ([2]; Example 12, Conc. 0.25%) [mm Hg×min]	Duration of effect ([2]; Example 12, Conc. 0.5%) [min]	Max resp. Δ IOP ([2]; Example 12, Conc. 0.5%) [mm Hg]	Time to max. resp. ([2]; Example 12, Conc. 0.5%) [min]	AUC ([2]; Example 12, Conc. 0.5%) [mm Hg×min]	Duration of effect ([2]; Example 12, Conc. 1.0%) [min]	Max resp. Δ IOP ([2]; Example 12, Conc. 1.0%) [mm Hg]	Time to max. resp. ([2]; Example 12, Conc. 1.0%) [min]	AUC ([2]; Example 12, Conc. 1.0%) [mm Hg×min]
CC(=O)NCSC[C@H](NC(=O)[C@@H](NC(=O)CNC(=O)[C@H](CC(C)C)NC(=O)[C@@H](N)CC(N)=O)C(C)C)C(N)=O [AsnLeuGlyValCys(Acm)NH2, H-Asn-Leu-Gly-Val-Cys(Acm)-NH2] (H-NLGVC(Acm)-NH2)	+1 mm Hg	16	15	120	30	-5.5	0	0	0	0	120	-5.5	30	400	120	-5.0	30	550
CC(=O)NCSC[C@H](NC(=O)[C@@H](NC(=O)CNC(=O)[C@H](C)NC(=O)[C@@H](N)CC(N)=O)C(C)C)C(N)=O [H--AsnAlaGlyValCys(Acm)NH2, H-Asn-Ala-Gly-Val-Cys(Acm)-NH2] (H-NAGVC(Acm)-NH2)	-1 mm Hg	13	14	–	–	–	–	–	–	–	–	–	–	–	–	–	–	–

From patent US5411942A, “Peptide derivative, pharmaceutical preparation containing it and method for treatment of glaucoma” (Carlbiotech Ltd. A/S, priority 1989, dated 1995)
